Measurements: PMC8215385, “Design of a Proteolytically Stable Sodium-Calcium Exchanger 1 Activator Peptide for In Vivo Studies” (Frontiers in Pharmacology, 2021)
Results are given in words; binding and its absence hold for the method and conditions named. Binding seen in cells or lysates may run through a third protein. Some results given as binding are weak or reduced against the parent protein; the word gives no strength.

Sequences of proteins named here, by UniProt entry; tags and fusion partners are left off. Residues count along the entry.
UniProt O08589, residues 21-92: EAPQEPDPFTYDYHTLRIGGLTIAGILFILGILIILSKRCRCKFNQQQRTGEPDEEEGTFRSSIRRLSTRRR

Legend:
[1] = biological target: T1, NOPT-biotin; test: pull-down; biotinylated peptide (8 uM) on monoclonal anti-biotin beads, incubated with rat left ventricle lysate 2 h at 4°C; immunoblot with PLM antibodies; only the target purified
T1 sequence (peptide, N-methyl-proline (NMP) at position 1; biotin at the C-terminus): PYKEIEQLIELANYQV

[2] = biological target: T2, biotin-ahx-mini-OPT; test: as above
T2 sequence (peptide, biotin at the N-terminus with ahx-linker): PYKEIEQLIELANYQV

- binding [1]: binds
- binding [2]: binds
Substance: endogenous phospholemman (PLM) (from UniProt O08589 21-92)
